Consider 77 compounds from PMC12040169 (PLOS Biology, 2025).

The list shows a part of the results.

The assay concerns T1, CTL2-GFP (C. trachomatis L2/434/Bu, GFP-expressing).
T1 construct: L2/434/Bu, GFP-expressing
Also noted: species or system HeLa; Intracellular C. trachomatis growth in HeLa cells, bulk GFP fluorescence relative to DMSO. The following applies: bulk GFP, single well; 28.5 h, 10 µM; inhibitor.
For `COc1ccccc1-c1ncc(OCc2ccccn2)nc1N` [CBK145070], the “% of control remaining” value worked out at 101.823%.

On to `O=C(NCC(F)F)c1cn2cc(-c3cccs3)n(CC3CC3)c(=O)c2n1` [CBK307347], for which the “% of control remaining” value was determined as 100.869%.

For `CCN1C(=O)CC2(C1=O)C(=O)N(CCc1cccs1)c1ccccc12` (centres unmarked) [CBK075521], the “% of control remaining” value is listed as 112.052%.

As for `CCN1CCN(C(=S)c2ccc(OCC(N)=O)c(OC)c2)CC1` [CBK269293], the “% of control remaining” value is on record as 136.256%.

For `CN(C(=O)C1CCN(Cc2cccc(C(F)(F)F)c2)CC1)C(c1ccc(F)cc1)c1ccccn1` (centres unmarked) [CBK148409], the “% of control remaining” value was determined as 100%.

With `COc1ccc(S(=O)(=O)Nc2ccc3oc4c(c3c2)CC(C)CC4)cc1[N+](=O)[O-]` (centres unmarked) [CBK266131], the “% of control remaining” value was found to be 112.016%.

For the compound `FC(F)(F)c1cnc(N2CCNCC2)c(Cl)c1` [CBK013400], the “% of control remaining” value came to 102.095%.

`O=S(=O)(Nc1ccc2cn[nH]c2c1)c1ccc(-c2ccon2)s1` [CBK067157]: the “% of control remaining” value is reported as 90.9748%.

`c1ccc2c(c1)/C(=N/OCCCN1CCCCC1)CC21CCCCC1` [CBK013321]: the “% of control remaining” value came to 140.021%.

As to `CN(C)CCN1CCN(CC2(c3ccc(Cl)cc3)CC2)CC1` [CBK282783], the “% of control remaining” value turned out to be 103.921%.

With `CCN1C(=O)c2ccccc2C(=O)[C@@]2(C)CN(C(=O)C3CC3)C[C@@H]12` [CBK284567], the “% of control remaining” value stood at 148.052%.

Consider `CCn1cc(S(=O)(=O)NC2CCc3[nH]c4ccc(C)cc4c3C2)cn1` (centres unmarked) [CBK304790], for which the “% of control remaining” value was 126.466%.

For `CC(C)NS(=O)(=O)c1ccc(NS(=O)(=O)c2cc(C(=O)O)ccc2Cl)cc1` [CBK296951], the “% of control remaining” value was found to be 144.171%.

Regarding `CCC1CCCCN1C(=O)c1sc2ncccc2c1N` (centres unmarked) [CBK081410], the “% of control remaining” value was determined as 97.4204%.

As for `CN(C(=O)CN1CCCC1Cn1cccn1)C1(C#N)CCCCC1` (centres unmarked) [CBK304571], the “% of control remaining” value is on record as 94.6258%.

Take `Cc1nonc1CC(=O)N[C@H]1C2CCCCC2[C@@H]1c1ccccc1` (some centres unmarked) [CBK285126]: the “% of control remaining” value was 117.933%.

`CC1CN(C)C(c2ccccc2)C(C)C12NC(=O)NC2=O` (centres unmarked) [CBK288428]: the “% of control remaining” value is reported as 127.07%.

Regarding `CN1CCC2(CC1)NCCc1c2ccn1S(=O)(=O)c1ccc(I)cc1` [CBK061945C], the “% of control remaining” value came to 117.672%.

As to `O=C(CCSS(=O)(=O)O)N1CCc2ccccc21` [CBK260892N], the “% of control remaining” value turned out to be 107.251%.

Turning to `Cc1cccc(OCC(=O)Nc2ccc(S(=O)(=O)N3CCOCC3)cc2)c1` [CBK264110], the “% of control remaining” value was 98.2351%.

Consider `COCC(C)NC(=O)Cn1cccc2cc(C(F)F)nc1-2` (centres unmarked) [CBK285011], for which the “% of control remaining” value was determined as 93.8267%.

Consider `COCc1nnc(SCC(=O)N2CCc3ccccc32)n1-c1ccccc1` [CBK269739], for which the “% of control remaining” value worked out at 130.669%.

Take `COc1ccc(-c2cc(=O)oc3cc(OC(C)C(=O)O)ccc23)cc1` (centres unmarked) [CBK286696]: the “% of control remaining” value is 92.4838%.

Take `CC(=O)NC[C@H]1CN(c2ccc(C3=CC[S+]([O-])CC3)c(F)c2)C(=O)O1` (some centres unmarked) [CBK017555]: the “% of control remaining” value was determined as 0.258%.

For the compound `CC(NC(C)(C)C)C(O)COc1ccc(Cl)c2c1C1CCC2CC1` (centres unmarked) [CBK017752C], the “% of control remaining” value is 59.0739%.

Consider `CCOc1ccc(NC(=O)C2CC=CCC2C(=O)O)cc1` (centres unmarked) [CBK274682], for which the “% of control remaining” value amounted to 83.3779%.

Consider `Cc1ccc(CNC(=O)Cn2nnc(-c3ccc(CN4CCCC(C(F)(F)F)C4)cc3)n2)cc1` (centres unmarked) [CBK144562C], for which the “% of control remaining” value turned out to be 106.456%.

With `COc1ccc(NC(=O)CSc2ncnc3ccccc23)cc1` [CBK270215], the “% of control remaining” value is 125.621%.

With `CC(C)(CO)NC(=O)c1cc(S(=O)(=O)N2CCOCC2)ccc1Cl` [CBK269748], the “% of control remaining” value came to 118.665%.

As for `O=C1CC(c2ccccc2)CC(NCc2ccc3c(c2)OCO3)=C1C(=S)Nc1ccccc1` (centres unmarked) [CBK264890], the “% of control remaining” value came out at 105.236%.

Consider `O=C(Cc1cccs1)NCCc1c[nH]cn1` [CBK269805], for which the “% of control remaining” value stood at 140.224%.

As to `COCCn1cnnc1CCNC(=O)Cc1cccc(O)c1` [CBK307322], the “% of control remaining” value came to 104.776%.

For `O=C(Cn1c(-c2cccs2)cc2cccnc21)N1CCC(O)CC1` [CBK282458], the “% of control remaining” value came out at 94.5143%.

`Cc1nc2ccccc2c(=O)n1CC(N)=O` [CBK004145]: the “% of control remaining” value is recorded as 113.792%.

`CC1=NN(c2ccc([N+](=O)[O-])cc2)C(=O)/C1=C\NCCN1CCN(C(=O)c2ccc(Br)cc2)CC1` [CBK261788]: the “% of control remaining” value is reported as 104.064%.

For `COc1ccc([C@@]23CC[C@@H](NC(=O)Nc4cc(F)c(F)c(F)c4)C[C@@H]2N(C)CC3)c(F)c1OC` [CBK073909T], the “% of control remaining” value came to 112.509%.

For the compound `O=C1CN=C(N2C(=O)C3C4C=CC(C4)C3C2=O)C(=O)N1` (centres unmarked) [CBK028818], the “% of control remaining” value came out at 104.097%.

Turning to `CCC(c1ccc2ccccc2c1)c1c(O)c2ccccc2oc1=O` (centres unmarked) [CBK016681], the “% of control remaining” value was found to be 114.466%.

In the case of `CC(C(=O)N(C)C)n1cccc1` (centres unmarked) [CBK012421], the “% of control remaining” value stood at 132.64%.

Take `O=C(O)c1cccc2c3c([nH]c12)CCCCC3` [CBK003451]: the “% of control remaining” value came to 122.259%.

`O=C(O)CC(NS(=O)(=O)c1cccc2nsnc12)C(=O)O` (centres unmarked) [CBK073316]: the “% of control remaining” value amounted to 105.337%.

`Cc1nc(CSc2nc3sc4c(c3c(=O)n2-c2ccccc2)CCCCC4)cs1` [CBK265706]: the “% of control remaining” value is reported as 123.349%.

Take `Cc1ccc(NS(=O)(=O)c2ccc(NC(=O)c3ccc(CN4CCOCC4)cc3)cc2)c(C)c1` [CBK264815]: the “% of control remaining” value came out at 99.1887%.

As for `COc1cc(C(=O)NCC(=O)O)cc(OC)c1OC` [CBK261039], the “% of control remaining” value came to 124.11%.

As for `O=C1N[C@@]2(CC3CCC2CC3C(=O)N2CCCC2)Nc2ccccc21` (some centres unmarked) [CBK284449], the “% of control remaining” value was 110.674%.

Take `COC(=O)c1nn(-c2ccccc2)c2cc([N+](=O)[O-])ccc12` [CBK115321]: the “% of control remaining” value is recorded as 126.7%.

For `COc1ccc2nc(NC(=O)c3ccc4ncsc4c3)sc2c1` [CBK287364], the “% of control remaining” value amounted to 136.921%.

On to `Cc1ccccc1OCc1nn2c(C)nnc2s1` [CBK269220], for which the “% of control remaining” value came to 123.281%.

Turning to `Cc1c(NC(=O)CCCC(=O)O)c(=O)n(-c2ccccc2)n1C` [CBK286532], the “% of control remaining” value is on record as 163.533%.

In the case of `CS(=O)(=O)c1ccc(-c2cnc(N)c(NC3CCC(O)CC3)n2)cc1` (centres unmarked) [CBK063865], the “% of control remaining” value worked out at 78.4768%.

For `COc1cc(NC(=O)c2cccnc2)c(Cl)cc1NC(=O)c1ccc(Cl)cc1` [CBK033522], the “% of control remaining” value is on record as 100%.

Consider `CC1=NN(c2nc(-c3ccc(Br)cc3)cs2)C(=O)C1/N=N/c1ccc(C(=O)O)cc1` (centres unmarked) [CBK262435], for which the “% of control remaining” value came out at 100%.

For `O=C(Nc1ccc2c(c1)oc1ccccc12)C1CCCO1` (centres unmarked) [CBK270168], the “% of control remaining” value is 123.861%.

In the case of `O=C(c1ccco1)N1CCC2(CCCNC2)C1` (centres unmarked) [CBK153233C], the “% of control remaining” value amounted to 116.87%.

With `O=C(O)c1ccc(OCCNS(=O)(=O)c2ccc3ccccc3c2)cc1` [CBK299807], the “% of control remaining” value is given as 105.553%.

As to `O=c1[nH]cc(-c2ccccc2)cc1CNc1cccc2ncccc12` [CBK284771], the “% of control remaining” value came out at 80.1289%.

`COc1ccc(NC(=O)CSc2nnc(N)s2)cc1` [CBK058635]: the “% of control remaining” value amounted to 103.555%.

With `O=C(CCN1CCCCC1)Nc1cnc(-c2ccc(F)cc2)c(-c2ccsc2)n1` [CBK036846], the “% of control remaining” value came out at 81.1751%.

For `O=C(c1ccc(NS(=O)(=O)c2ccccc2)cc1)N1CCN(Cc2ccc3c(c2)OCO3)CC1` [CBK267957], the “% of control remaining” value stood at 93.5162%.

Turning to `COc1cccc(CS(=O)(=O)c2c(Br)sc3ccnc(N4CCNCC4)c23)c1` [CBK038956C], the “% of control remaining” value stood at 127.595%.

For `O=C(Nc1cc(N2CCCS2(=O)=O)ccc1F)c1n[nH]c2ccccc12` [CBK304216], the “% of control remaining” value came out at 90.6825%.

Consider `COc1ccc(C(=O)C2=C(O)C(=O)N(CCN3CCNCC3)C2c2ccccc2F)cc1` (centres unmarked) [CBK264666], for which the “% of control remaining” value turned out to be 124.971%.

On to `CC(C)NC(=O)C[C@@H]1c2nc(-c3ccccc3)sc2C[C@@H]2[C@](C)(CO)[C@H](O)CC[C@]21C` [CBK289570], for which the “% of control remaining” value is listed as 138.595%.

In the case of `Sc1nnc(-c2ccncc2)n1CCc1ccccc1` [CBK265819], the “% of control remaining” value was determined as 124.136%.

Take `CC(=O)NC[C@H]1CN(c2ccc(-c3nnc([C@@H](C)N)s3)c(F)c2)C(=O)O1` [CBK017966]: the “% of control remaining” value worked out at 7.413%.

Regarding `CC(C)=NNC(=O)CSc1nc(N2CCOCC2)c2ccccc2n1` [CBK009114], the “% of control remaining” value is on record as 134.615%.

For the compound `COCCn1cnnc1C(C)NC(=O)Cn1cc2ccccc2n1` (centres unmarked) [CBK307047], the “% of control remaining” value worked out at 129.666%.

Consider `Cc1cc(O)nc(C(C)N2CCCN(CC(F)(F)F)CC2)n1` (centres unmarked) [CBK305491], for which the “% of control remaining” value turned out to be 87.937%.

Take `COc1ccc([C@@]23CC[C@@H](NC(=O)Nc4ccc(Cl)nc4)C[C@@H]2N(C)CC3)cc1OC` [CBK045764]: the “% of control remaining” value is 124.361%.

With `O=S(=O)(c1ccccc1)C1C2C=CC(COC3CCCCO3)(O2)C1S(=O)(=O)c1ccccc1` (centres unmarked) [CBK020045], the “% of control remaining” value came to 140.581%.

Consider `O=C(O)c1ccccc1C(=O)N1CCC2(CC1)NCCc1c2[nH]c2ccccc12` [CBK047235], for which the “% of control remaining” value amounted to 112.192%.

In the case of `Cc1ccc(S(=O)(=O)c2ccc(C)c(S(=O)(=O)N3CCOCC3)c2)cc1S(=O)(=O)N1CCOCC1` [CBK261677], the “% of control remaining” value was found to be 115.596%.

Consider `c1coc(CNc2nc(-c3ccoc3)cn3ccnc23)c1` [CBK066610], for which the “% of control remaining” value is 105.904%.

Consider `COc1ccc(Oc2nccnc2N2CCN(Cc3ccc(Cl)cc3)CC2)cc1OC` [CBK083041T], for which the “% of control remaining” value is 102.662%.

As to `O=c1nc(NS(=O)(=O)c2ccccc2Br)c(F)c[nH]1` [CBK067573], the “% of control remaining” value is on record as 131.334%.

In the case of `CCOc1ccc2[nH]c(C(=O)NC3CCCN(C)C3)c(C)c2c1` (centres unmarked) [CBK282530], the “% of control remaining” value is reported as 71.6934%.

Take `O=C(NCCc1c[nH]c2ccc(Cl)cc12)c1cc(F)c(Cl)cc1F` [CBK159763]: the “% of control remaining” value amounted to 110.001%.
